For 1 sequence, binding signal results are on record in paper PMC5996148.

Values joined by “and” are separate entries in the source; they are usually repeats but may differ in a detail not shown here. Equal entries are not always repeated. The list shows a part of the results.

Test systems include CANX (human); CAP2 (human); CAPN1 (human); CAPNS2 (human); CAPS (human); CAPZA2 (human); CARTPT (human); CASC2 (human); CASP4 (human); CAT (human).
Experiment in all cases: protein microarray (ProtoArray v5.0), streptavidin-Alexa Fluor 647
What all share (details): 3'-biotin; 20 mM Tris (pH 7.5), 5 mM MgCl2, 100 mM KCl, 0.1% Tween-20, A/T-rich and random oligonucleotide blockers; temperature not stated; high values mean tight binding

“GGGAGGCTGAGGCAGG [G4-1 biotinylated (PQS2)]”: the binding signal is -0.313 z-score in the assay with CANX (human); -0.345 z-score in the assay with CAP2 (human); -0.307 z-score with CAPN1 (human); -0.345 z-score in the assay on CAPNS2 (human); -0.354 z-score and -0.376 z-score in the assay on CAPS (human); -0.356 z-score in the assay on CAPZA2 (human). For the same sequence, the binding signal in the assay on CARTPT (human) is -0.26 z-score; with CASC2 (human), -0.279 z-score; with CASP4 (human), -0.335 z-score; in the assay on CAT (human) it was -0.348 z-score.
